# Source: article PMC11984502, “A stress-responsive p38 signaling axis in choanoflagellates” (RSC Chemical Biology, 2025)
# Only a part is listed here, and it is no random draw. The numbers are fractions of the control, whatever unit the source prints.
# Tested on: S. rosetta (SrEpac culture)
# Conditions: flow cytometry, 24 h, high-nutrient medium; 10 µM
row,Structure (SMILES),% viability
1,CC(C)n1nc(-c2ccc3ccncc3c2)c2c(N)ncnc21 [KMS_134],0.7219
2,Nc1nc(N)c2nc(-c3cccc(O)c3)cnc2n1 [TG100713],1.681
3,Nc1ccc(C(=O)Nc2cccc(-c3nc(N4CCOCC4)c4oc5ncccc5c4n3)c2)cn1 [YM201636],0.922
